Structures can show the parent of a compound that is named as a salt.
Tested on: MDA-MB-231
Assay: cells
Design: species or system T47D, MRC-5; MTT cell viability, growth inhibition versus DMSO control, n = 4
Settings: Homo sapiens, MDA-MB-231, 48 h
Protocol: Cytotoxicity assays were evaluated against the following cell lines: T-47D ATCC, HTB-133 (hormone-dependent breast cancer), and MRC-5 ATCC, CCL171 (normal embryonic lung) from the American Type Culture Collection (ATCC, Manassas, VA) as well as MDA-MB-231 ((hormone-independent breast cancer) from M.D. Anderson Cancer Center, Houston, TX). […] The cutoff concentration is 50 μg mL^–1. Cell viability was determined using the MTT assay. […] The selectivity index between the T47D cancer cell line and the MRC-5 normal cell line is 13.5. […] In addition, this compound was previously reported to be noncytotoxic to MCF-7 cancer cell line.[36] This means that the growth inhibitory effect of hericerin depends on the types of breast cancer cell. T47D, MDA-MB-231, and MCF-7 are popular models in breast cancer studies. The T47D and MCF-7 are hormone-dependent breast cancer cells, but MDA-MB-231 is a hormone-independent breast cancer cell. […] Thus, hericerin (13) may be a good candidate to develop an anticancer agent against progesterone-sensitive breast cancer cells. Moreover, hericerin was reported to inhibit the growth of A549, SK-OV-3, SK-MEL-2, HCT-15, and HL-60 cancer cell lines.[10],[38] […] First, T47D and MDA-MB-231 breast cancer cells were exposed to compound 13 for 48 h, and the abundance of two apoptotic markers, namely, PARP and procaspase 3, was determined by Western blot.

COc1cccc2c1C(=O)c1c(O)c3c(c(O)c1C2=O)C[C@@](O)(C(=O)CO)C[C@@H]3O[C@H]1C[C@H](N)[C@H](O)[C@H](C)O1 [Doxorubicin·HCl, Doxorubicin hydrochloride]
IC50: 2.21 ± 0.23 µM

From paper PMC10701869, “Anti-Xanthine Oxidase 5′-Hydroxyhericenes A–D from the Edible Mushroom Hericium erinaceus and Structure Revision of 3-[2,3-Dihydroxy-4-(hydroxymethyl)tetrahydrofuran-1-yl]-pyridine-4,5-diol” (ACS Omega, 2023)
